Experimental data from article PMC11865472.

Molecular target: T1, inhibin A (InhA), mature heterodimer, unlabelled (UniProt P05111)
T1 sequence 1: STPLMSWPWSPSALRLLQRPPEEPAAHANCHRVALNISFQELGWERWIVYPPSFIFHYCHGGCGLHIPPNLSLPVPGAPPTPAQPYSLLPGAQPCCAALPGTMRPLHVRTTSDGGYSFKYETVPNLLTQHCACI
T1 sequence 2: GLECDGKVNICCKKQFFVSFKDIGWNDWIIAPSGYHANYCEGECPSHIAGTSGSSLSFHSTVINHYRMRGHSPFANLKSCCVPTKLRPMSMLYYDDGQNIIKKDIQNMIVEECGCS
Assay: SPR; InhA immobilized on the chip surface; BG_ZP-C variants injected in a 2-fold dilution series; how InhA was coupled is not said; both purified

rat betaglycan ZP-C domain (BG_(ZP-C)), mammalian-expressed (domain or fragment)
binding: binds

These are yes or no findings as the source states them, for the method shown. Binding can be weak; no strength is given.
